Measurements published in doi:10.1101/2025.05.28.656747.
Where two headings read alike, the source gives them in different places. These are yes or no findings as the source states them, for the method shown. Binding seen in cells or lysates may run through a third protein. Some binding calls cover weakened binding; strength is not graded here. Sequences can lack the tags named with a protein.

The chains behind the UniProt entries cited, without tags or fusion partners.
UniProt Q9UQE7: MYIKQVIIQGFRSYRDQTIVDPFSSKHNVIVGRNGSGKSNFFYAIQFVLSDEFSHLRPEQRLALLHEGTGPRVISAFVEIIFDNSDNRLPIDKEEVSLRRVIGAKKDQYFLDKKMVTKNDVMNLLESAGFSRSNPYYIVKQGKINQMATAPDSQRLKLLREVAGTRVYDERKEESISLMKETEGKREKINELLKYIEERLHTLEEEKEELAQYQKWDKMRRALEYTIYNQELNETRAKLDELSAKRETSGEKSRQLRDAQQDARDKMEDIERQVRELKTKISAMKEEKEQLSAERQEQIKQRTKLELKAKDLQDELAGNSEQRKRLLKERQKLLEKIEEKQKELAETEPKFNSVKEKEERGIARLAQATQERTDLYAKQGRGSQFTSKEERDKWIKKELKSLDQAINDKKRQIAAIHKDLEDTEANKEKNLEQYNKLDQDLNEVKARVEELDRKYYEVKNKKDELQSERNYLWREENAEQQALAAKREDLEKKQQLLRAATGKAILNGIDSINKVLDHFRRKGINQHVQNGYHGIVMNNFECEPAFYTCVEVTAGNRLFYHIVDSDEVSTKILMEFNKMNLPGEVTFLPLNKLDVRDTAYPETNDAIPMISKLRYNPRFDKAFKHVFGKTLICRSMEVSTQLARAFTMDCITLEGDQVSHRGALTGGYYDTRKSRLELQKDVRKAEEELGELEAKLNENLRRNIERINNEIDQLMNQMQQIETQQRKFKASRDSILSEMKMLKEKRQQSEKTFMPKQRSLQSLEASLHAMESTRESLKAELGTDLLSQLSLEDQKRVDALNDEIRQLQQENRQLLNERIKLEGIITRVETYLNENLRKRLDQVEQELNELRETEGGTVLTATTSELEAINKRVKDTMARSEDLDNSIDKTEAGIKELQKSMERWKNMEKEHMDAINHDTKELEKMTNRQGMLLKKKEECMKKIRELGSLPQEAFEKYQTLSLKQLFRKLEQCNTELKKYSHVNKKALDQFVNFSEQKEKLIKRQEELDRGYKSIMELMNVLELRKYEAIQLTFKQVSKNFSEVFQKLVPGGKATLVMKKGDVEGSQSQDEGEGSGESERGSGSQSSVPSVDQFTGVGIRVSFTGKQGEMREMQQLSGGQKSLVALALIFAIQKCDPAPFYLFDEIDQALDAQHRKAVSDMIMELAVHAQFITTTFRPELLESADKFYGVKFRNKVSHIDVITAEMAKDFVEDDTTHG
UniProt P53350: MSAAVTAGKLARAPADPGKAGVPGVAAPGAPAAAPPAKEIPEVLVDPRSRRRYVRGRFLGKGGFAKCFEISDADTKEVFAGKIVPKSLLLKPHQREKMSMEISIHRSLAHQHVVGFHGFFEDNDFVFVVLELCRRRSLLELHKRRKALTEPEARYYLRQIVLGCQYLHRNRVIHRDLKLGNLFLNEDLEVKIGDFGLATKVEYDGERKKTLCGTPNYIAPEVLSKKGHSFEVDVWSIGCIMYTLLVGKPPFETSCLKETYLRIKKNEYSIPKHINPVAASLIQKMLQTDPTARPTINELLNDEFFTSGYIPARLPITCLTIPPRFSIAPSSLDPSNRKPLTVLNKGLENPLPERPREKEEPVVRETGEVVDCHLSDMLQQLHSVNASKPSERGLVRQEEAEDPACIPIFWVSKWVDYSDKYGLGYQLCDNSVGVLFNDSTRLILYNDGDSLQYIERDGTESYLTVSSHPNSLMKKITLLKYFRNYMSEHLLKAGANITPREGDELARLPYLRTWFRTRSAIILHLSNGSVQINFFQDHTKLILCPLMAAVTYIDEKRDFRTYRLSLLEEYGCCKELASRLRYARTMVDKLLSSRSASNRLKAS
UniProt O95347: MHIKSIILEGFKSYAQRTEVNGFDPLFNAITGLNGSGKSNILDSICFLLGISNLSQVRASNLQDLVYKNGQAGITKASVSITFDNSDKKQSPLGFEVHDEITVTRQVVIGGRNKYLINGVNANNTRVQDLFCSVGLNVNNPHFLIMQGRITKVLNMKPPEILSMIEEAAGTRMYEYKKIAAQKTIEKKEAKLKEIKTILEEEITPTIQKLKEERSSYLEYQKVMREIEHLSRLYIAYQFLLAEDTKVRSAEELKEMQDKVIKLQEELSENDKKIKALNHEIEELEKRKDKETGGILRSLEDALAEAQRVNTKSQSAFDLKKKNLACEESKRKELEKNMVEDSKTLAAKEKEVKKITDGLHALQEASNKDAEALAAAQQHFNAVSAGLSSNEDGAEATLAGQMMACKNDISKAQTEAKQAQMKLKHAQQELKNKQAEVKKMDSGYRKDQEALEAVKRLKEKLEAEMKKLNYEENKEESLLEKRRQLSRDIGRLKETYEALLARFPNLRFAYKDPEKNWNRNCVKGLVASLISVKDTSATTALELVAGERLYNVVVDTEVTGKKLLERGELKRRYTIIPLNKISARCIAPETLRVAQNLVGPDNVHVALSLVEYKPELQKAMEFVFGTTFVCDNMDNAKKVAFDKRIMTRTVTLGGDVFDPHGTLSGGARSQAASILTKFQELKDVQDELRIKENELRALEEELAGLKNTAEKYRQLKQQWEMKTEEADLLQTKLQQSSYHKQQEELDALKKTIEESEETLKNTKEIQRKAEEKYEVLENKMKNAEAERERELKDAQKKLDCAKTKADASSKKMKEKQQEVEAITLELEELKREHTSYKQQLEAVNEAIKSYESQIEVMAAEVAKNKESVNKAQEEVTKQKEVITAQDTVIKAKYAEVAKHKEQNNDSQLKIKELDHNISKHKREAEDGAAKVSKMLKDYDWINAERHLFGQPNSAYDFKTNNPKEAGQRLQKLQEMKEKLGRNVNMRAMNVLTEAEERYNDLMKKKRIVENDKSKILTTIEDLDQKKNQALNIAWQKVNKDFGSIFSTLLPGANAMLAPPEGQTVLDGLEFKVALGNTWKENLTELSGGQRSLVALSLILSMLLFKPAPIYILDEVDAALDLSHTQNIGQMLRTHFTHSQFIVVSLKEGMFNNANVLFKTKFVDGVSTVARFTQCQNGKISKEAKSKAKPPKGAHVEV

T1: 1×Flag-ADAR1p110 (Adenosine Deaminase Acting on RNA 1 p110) (UniProt P55265)
T1 sequence: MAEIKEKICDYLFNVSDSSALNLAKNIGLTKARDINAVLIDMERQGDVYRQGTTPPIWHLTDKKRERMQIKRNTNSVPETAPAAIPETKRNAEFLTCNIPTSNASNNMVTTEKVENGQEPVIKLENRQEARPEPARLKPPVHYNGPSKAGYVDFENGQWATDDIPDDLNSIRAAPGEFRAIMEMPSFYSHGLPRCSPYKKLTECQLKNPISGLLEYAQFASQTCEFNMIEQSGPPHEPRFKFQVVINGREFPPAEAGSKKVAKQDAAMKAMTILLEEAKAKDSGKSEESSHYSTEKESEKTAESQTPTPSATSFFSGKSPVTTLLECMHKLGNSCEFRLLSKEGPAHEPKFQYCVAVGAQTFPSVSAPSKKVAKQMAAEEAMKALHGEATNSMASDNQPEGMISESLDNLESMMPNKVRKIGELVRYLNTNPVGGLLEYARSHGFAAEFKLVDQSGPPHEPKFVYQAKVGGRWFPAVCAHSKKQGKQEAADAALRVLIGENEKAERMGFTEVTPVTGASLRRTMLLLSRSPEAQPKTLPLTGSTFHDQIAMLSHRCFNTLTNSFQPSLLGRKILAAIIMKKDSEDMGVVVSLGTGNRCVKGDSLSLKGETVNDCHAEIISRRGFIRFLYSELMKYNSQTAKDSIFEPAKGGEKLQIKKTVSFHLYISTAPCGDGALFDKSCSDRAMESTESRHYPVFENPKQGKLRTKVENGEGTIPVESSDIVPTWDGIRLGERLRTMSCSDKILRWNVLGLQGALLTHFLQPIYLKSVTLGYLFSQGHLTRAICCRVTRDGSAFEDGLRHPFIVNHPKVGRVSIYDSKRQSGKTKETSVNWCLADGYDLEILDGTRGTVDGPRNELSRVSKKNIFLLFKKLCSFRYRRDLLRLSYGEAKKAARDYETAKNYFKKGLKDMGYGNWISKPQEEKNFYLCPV


Assays:
Test in all cases: co-IP
[1] = molecular target: T1, 1×Flag-ADAR1p110 (Adenosine Deaminase Acting on RNA 1 p110)
[2] = molecular target: Structural Maintenance of Chromosome 3 (SMC3) (human (endogenous in HeLa)) (UniProt Q9UQE7)
[3] = molecular target: T1, 1×Flag-ADAR1p110 (Adenosine Deaminase Acting on RNA 1 p110); remark: listed apart in the source

Molecule | binding [1] | also measured
Structural Maintenance of Chromosome 3 (SMC3) (from UniProt Q9UQE7 1-1217) | binds | 
1×Flag-ADAR1p110 (Adenosine Deaminase Acting on RNA 1 p110) (enzyme, UniProt P55265-5 1-931) MAEIKEKICDYLFNVSDSSALNLAKNIGLTKARDINAVLIDMERQGDVYRQGTTPPIWHLTDKKRERMQIKRNTNSVPETAPAAIPETKRNAEFLTCNIPTSNASNNMVTTEKVENGQEPVIKLENRQEARPEPARLKPPVHYNGPSKAGYVDFENGQWATDDIPDDLNSIRAAPGEFRAIMEMPSFYSHGLPRCSPYKKLTECQLKNPISGLLEYAQFASQTCEFNMIEQSGPPHEPRFKFQVVINGREFPPAEAGSKKVAKQDAAMKAMTILLEEAKAKDSGKSEESSHYSTEKESEKTAESQTPTPSATSFFSGKSPVTTLLECMHKLGNSCEFRLLSKEGPAHEPKFQYCVAVGAQTFPSVSAPSKKVAKQMAAEEAMKALHGEATNSMASDNQPEGMISESLDNLESMMPNKVRKIGELVRYLNTNPVGGLLEYARSHGFAAEFKLVDQSGPPHEPKFVYQAKVGGRWFPAVCAHSKKQGKQEAADAALRVLIGENEKAERMGFTEVTPVTGASLRRTMLLLSRSPEAQPKTLPLTGSTFHDQIAMLSHRCFNTLTNSFQPSLLGRKILAAIIMKKDSEDMGVVVSLGTGNRCVKGDSLSLKGETVNDCHAEIISRRGFIRFLYSELMKYNSQTAKDSIFEPAKGGEKLQIKKTVSFHLYISTAPCGDGALFDKSCSDRAMESTESRHYPVFENPKQGKLRTKVENGEGTIPVESSDIVPTWDGIRLGERLRTMSCSDKILRWNVLGLQGALLTHFLQPIYLKSVTLGYLFSQGHLTRAICCRVTRDGSAFEDGLRHPFIVNHPKVGRVSIYDSKRQSGKTKETSVNWCLADGYDLEILDGTRGTVDGPRNELSRVSKKNIFLLFKKLCSFRYRRDLLRLSYGEAKKAARDYETAKNYFKKGLKDMGYGNWISKPQEEKNFYLCPV |  | binding [2]: binds
CDC25C (enzyme, UniProt P30307 1-473) MSTELFSSTREEGSSGSGPSFRSNQRKMLNLLLERDTSFTVCPDVPRTPVGKFLGDSANLSILSGGTPKRCLDLSNLSSGEITATQLTTSADLDETGHLDSSGLQEVHLAGMNHDQHLMKCSPAQLLCSTPNGLDRGHRKRDAMCSSSANKENDNGNLVDSEMKYLGSPITTVPKLDKNPNLGEDQAEEISDELMEFSLKDQEAKVSRSGLYRSPSMPENLNRPRLKQVEKFKDNTIPDKVKKKYFSGQGKLRKGLCLKKTVSLCDITITQMLEEDSNQGHLIGDFSKVCALPTVSGKHQDLKYVNPETVAALLSGKFQGLIEKFYVIDCRYPYEYLGGHIQGALNLYSQEELFNFFLKKPIVPLDTQKRIIIVFHCEFSSERGPRMCRCLREEDRSLNQYPALYYPELYILKGGYRDFFPEYMELCEPQSYCPMHHQDHKTELLRCRSQSKVQEGERQLREQIALLVKDMSP |  | binding [3]: no binding

Second part, led by results:

binding [1] | Molecule | also measured
binds | PLK1 (from UniProt P53350 1-603) (enzyme) | 
binds | SMC2 (from UniProt O95347 1-1197) | 
